Data from publication PMC7820495.
Results are given in words; binding and its absence hold for the method and conditions named. In cells and extracts the contact can be indirect. Some binding calls cover weakened binding; strength is not graded here.

Sequences of proteins named here, by UniProt entry; tags and fusion partners are left off. A change or cut given only in a name is not applied to a line headed by its entry.
UniProt Q7KN62: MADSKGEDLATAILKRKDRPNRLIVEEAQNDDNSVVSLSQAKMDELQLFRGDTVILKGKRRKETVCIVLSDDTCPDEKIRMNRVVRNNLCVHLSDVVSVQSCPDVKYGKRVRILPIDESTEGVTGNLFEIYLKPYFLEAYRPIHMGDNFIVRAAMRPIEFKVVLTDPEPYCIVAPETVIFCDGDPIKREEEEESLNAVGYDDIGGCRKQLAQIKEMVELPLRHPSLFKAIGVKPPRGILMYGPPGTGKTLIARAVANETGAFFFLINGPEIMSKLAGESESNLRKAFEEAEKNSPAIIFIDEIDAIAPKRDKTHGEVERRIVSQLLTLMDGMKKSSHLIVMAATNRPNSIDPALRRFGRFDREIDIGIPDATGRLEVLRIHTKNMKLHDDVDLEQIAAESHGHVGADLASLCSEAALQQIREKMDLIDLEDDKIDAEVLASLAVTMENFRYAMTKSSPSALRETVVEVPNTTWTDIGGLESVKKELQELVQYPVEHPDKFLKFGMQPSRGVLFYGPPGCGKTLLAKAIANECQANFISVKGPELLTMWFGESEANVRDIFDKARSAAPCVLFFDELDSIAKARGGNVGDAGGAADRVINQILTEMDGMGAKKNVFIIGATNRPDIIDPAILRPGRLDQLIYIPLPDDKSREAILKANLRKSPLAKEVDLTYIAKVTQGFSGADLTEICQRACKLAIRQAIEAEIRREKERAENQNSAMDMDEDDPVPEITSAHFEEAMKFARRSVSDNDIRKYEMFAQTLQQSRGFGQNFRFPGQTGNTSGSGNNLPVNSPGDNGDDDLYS

Tests used:
[1] = biological target: VCP^P134L-sfGFP (Drosophila VCP P134L tagged with sfGFP at the endogenous locus) (Drosophila) (UniProt Q7KN62); assay: co-IP; co-immunoprecipitation of endogenously expressed VCP with VCP-sfGFP from heterozygous (transheterozygote) flies
[2] = biological target: VCP^WT-sfGFP (Drosophila VCP tagged with sfGFP at the endogenous locus) (Drosophila) (UniProt Q7KN62); assay: as above

binding [1]: binds | binding [2]: binds
Substance: wild-type VCP (endogenous, untagged, Drosophila) (from UniProt Q7KN62 1-801)
